Test results published in PubChem BioAssay AID2551 (National Center for Advancing Translational Sciences (NCATS), 2010).
About 17,000 (5.5%) of roughly 310,000 compounds were called active. Inconclusive results, whose numbers are uncertain, are shown with a selection of clear calls. The call rests on the fitted dose curve; in most records, active means well fitted inhibition curve with a large enough effect; inconclusive means small, poorly fitted or top-dose-only effect, or effect the other way; inactive means no such curve, though single readings can be large or run the other way. Potencies beside an inconclusive call are fits to weak or partial responses and may not hold up.

The chains behind the UniProt entries cited, without tags or fusion partners. Where a name states a change or a piece, a line headed by the entry shows the natural chain unless it says otherwise.
UniProt P51450: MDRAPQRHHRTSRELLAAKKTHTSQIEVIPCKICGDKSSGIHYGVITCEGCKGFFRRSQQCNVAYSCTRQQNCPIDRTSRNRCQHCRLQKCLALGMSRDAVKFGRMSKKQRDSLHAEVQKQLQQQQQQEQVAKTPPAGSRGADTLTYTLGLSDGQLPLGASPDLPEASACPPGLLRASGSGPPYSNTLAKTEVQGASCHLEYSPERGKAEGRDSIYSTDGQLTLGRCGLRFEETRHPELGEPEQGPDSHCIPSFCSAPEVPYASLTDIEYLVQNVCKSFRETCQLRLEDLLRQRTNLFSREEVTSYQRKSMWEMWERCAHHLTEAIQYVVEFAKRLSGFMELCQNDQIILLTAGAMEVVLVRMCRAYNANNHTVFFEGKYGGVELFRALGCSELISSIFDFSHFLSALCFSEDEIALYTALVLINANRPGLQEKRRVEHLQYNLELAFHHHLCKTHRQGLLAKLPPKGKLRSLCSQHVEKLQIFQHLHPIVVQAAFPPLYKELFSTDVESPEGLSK

These compounds were tested against Nuclear receptor ROR-gamma (Mus musculus) (UniProt P51450) (assay: qHTS for inhibitors of ROR gamma transcriptional activity). Conditions: Drosophila S2 Gal4-RORgamma UAS-luciferase reporter, 20 h; activity change, negative = inhibition: at 53.6 µM (top of the series).
How it was run: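 Drosophila S2 cells stably expressing Gal4-DBD/mouse RORγ fusion under metallothionein promoter plus UAS-luciferase; compound 1 h, then 700 uM CuSO4 induction for 20 h at ambient temperature; inhibition read as reduced luminescence.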
Further: nearly all actives have a fitted effect of over 60% in size.
On the % scale 0 is the no-effect control and ±100 the full control effect; potency means the concentration at half of the fitted maximal effect.

Structure (SMILES) | Potency | activity change, negative = inhibition
Cc1cc(OC(C)C(=O)Nc2ccc(S(=O)(=O)Nc3onc(C)c3C)cc2)cc(C)c1Cl (stereo unspecified) | inconclusive: 7.94 µM [activator, partial curve] | 
COc1ccc2nc3c(cc2c1)Cn1c-3nc2ccccc2c1=O | inconclusive: 1.41 µM [inhibitor, full curve, poor fit] | 
CC(C)(C)C1CCc2c(sc(NC(=O)c3cc(C4CC4)on3)c2C#N)C1 (stereo unspecified) | active: 5.62 µM | 
O=[N+]([O-])c1ccccc1Oc1ccc(Cl)c2cccnc12 | inconclusive: 11.2 µM [activator, partial curve] | 
COc1ccc(/C=N\NC(=O)c2ccccc2)cc1COc1ccccc1 | inconclusive: 35.5 µM [inhibitor, single point] | 
COc1cc(/C=N/N=C2\CC3CCC2(C)C3(C)C)ccc1O (stereo unspecified) | inconclusive: 12.6 µM [inhibitor, single point] | 
COc1ccc(C(CCNCc2ccc(N(C)C)cc2)C(C)C)cc1 (stereo unspecified) | inconclusive: 35.5 µM [inhibitor, single point] | 
Cc1ccc(CNC(=O)CSc2nc(N3CCCCC3)nc(N3CCCCC3)n2)cc1 | inconclusive: 7.94 µM [activator, partial curve] | 
COc1ccc(CNc2ccc(S(N)(=O)=O)cc2)cc1 | inconclusive: 22.4 µM [inhibitor, single point] | 
O=C(N/N=C/c1cccc2ccccc12)c1cc(C2CC2)[nH]n1 | inconclusive: 0.282 µM [inhibitor, full curve] | 
CCc1ccc(NC(=O)CCCN2C(=S)NC(C)(C)CC2C)cc1 (stereo unspecified) | active: 4.47 µM | 
Cc1nnc(SCC(=O)Nc2nsc(-c3ccc(C(C)(C)C)cc3)n2)s1 | inconclusive: 0.355 µM [activator, partial curve] | 
CCCn1cnc2sc(CC)cc2c1=O | inactive | 
CCCCNC(=O)/C(=C\c1ccc([N+](=O)[O-])o1)NC(=O)c1ccccc1 | inconclusive: 12.6 µM [inhibitor, partial curve, poor fit] | 
CSc1ccc(S(=O)(=O)N2c3ccccc3CC2C)cc1 (stereo unspecified) |  | inactive: 42.2% [at 1.91 µM]
O=c1c2ccccc2oc2nc(-c3ccco3)n(-c3ccccc3)c(=O)c12 | inconclusive: 11.2 µM [activator, single point] | 
CCOC(=O)C1Cc2ccccc2CN1 (stereo unspecified) | inactive | 
O=C(Nc1ccccc1)c1cc(S(=O)(=O)NCc2ccncc2)ccc1Cl | inconclusive: 7.08 µM [activator, partial curve] | 
Oc1c(C(Nc2cccc(C(F)(F)F)c2)c2ccncc2)ccc2cccnc12 (stereo unspecified) | active: 3.98 µM | 
Cc1cc(C(=O)N/N=C/c2sccc2C)no1 | inconclusive: 15.8 µM [inhibitor, single point] | 
CC(C)CN1C(=O)c2ccc(C(=O)Nc3ccccn3)cc2C1=O | inactive | 
COc1ccc2cc(C(C)C(=O)NC3CCC(O)CC3)ccc2c1 (stereo unspecified) | inactive | 
COC(=O)[C@H]1CC=C[C@H]2CCN(Cc3ccc(Cl)c(Cl)c3)C(=O)[C@@H]12 | inconclusive: 17.8 µM [activator, single point] | 
CCn1c(SCC(=O)Nc2ccc(-c3nc4ccc(C)cc4s3)cc2)nnc1-c1ccccc1 | active: 11.2 µM | 

Structure (SMILES) | Potency | activity change, negative = inhibition
CC(=O)N(c1ccccc1)c1ccc([N+](=O)[O-])cc1[N+](=O)[O-] | inactive | 
Cn1cc(NC(=O)Nc2ccc(C(F)(F)F)cc2)c(C(F)(F)F)n1 | inactive | 
CC(OC(=O)c1cc(-c2cccnc2)nc2ccccc12)C(=O)Nc1ccc2ccccc2c1 (stereo unspecified) | inconclusive: 35.5 µM [activator, single point] | 
COc1cccc2c(=O)c(C/C=C(/C)Cl)c(C)[nH]c12 | inconclusive: 17.8 µM [activator, single point] | 
COc1ccc(NC(=S)N(CCCN2CCOCC2)Cc2cn(C)c3ccccc23)cc1 | inconclusive: 28.2 µM [inhibitor, single point] | 
O=C(CN1CCC(n2nnc3cc(F)ccc32)CC1)Nc1ccc2c(c1)CCC2 | inconclusive: 35.5 µM [activator, single point] | 
COc1ccc(S(=O)(=O)NCC2CC3C=CC2C3)cc1OC (stereo unspecified) | inactive | 
CC(C)C(=O)NC(=S)Nc1ccc(S(=O)(=O)N2CCCC2)cc1 | inconclusive: 8.91 µM [inhibitor, single point] | 
COCCNC(=S)Nc1ccccc1Cc1ccccc1 | active: 3.55 µM | 
CC(C)(C)OC(=O)NCCCCCNC(=O)c1[nH]cnc1C(=O)N[C@@H](CCCCNC(=O)OC(C)(C)C)C(=O)OC(C)(C)C | inconclusive: 22.4 µM [inhibitor, single point] | 
O=C(NNc1nc2c(F)cc(F)cc2s1)C1COc2ccccc2O1 (stereo unspecified) | active: 12.6 µM | 
CCOC(=O)C(NC(=O)NC1CCCCC1)(c1ccccc1)C(F)(F)F (stereo unspecified) | inconclusive: 0.562 µM [activator, full curve, poor fit] | 
S=c1[nH]nc(Cc2ccccc2)n1-c1ccc(Cl)cc1 | active: 2.24 µM | 
CN(CC(=O)NCCc1ccccc1)S(=O)(=O)c1cccs1 | inconclusive: 6.31 µM [activator, partial curve, poor fit] | 
CCCCCCCCOC(=O)c1ccc(N)cc1 | inactive | 
CC(=O)c1ccc(-n2nnnc2SCC(=O)Nc2cccc(NC(=O)c3ccco3)c2)cc1 | inconclusive: 11.2 µM [activator, single point] | 
CCOC(=O)C(=N/O)/C(C)=N/NC(=O)C(=O)Nc1cc(Cl)ccc1Cl | active: 11.2 µM | 
O=C(c1cc(-c2ccc3c(c2)OCO3)on1)N1CCCCC1 | inconclusive: 7.94 µM [inhibitor, partial curve, poor fit] | 
Cc1cccc(N2C(=O)CC(Sc3nnc(C)s3)C2=O)c1 (stereo unspecified) | inconclusive: 1.78 µM [inhibitor, partial curve, poor fit] | 
S=C(NCC1COc2ccccc2O1)Nc1ccc(Br)cc1 (stereo unspecified) | inconclusive: 35.5 µM [inhibitor, single point] | 
CC(C)(C)NC(=O)/C=C/c1ccc(C(F)(F)F)cc1 | inconclusive: 20 µM [activator, single point] | 
CN1/C(=C/C(=O)c2nc(S(C)(=O)=O)ncc2Cl)C(C)(C)c2ccccc21 | active: 3.16 µM | 
O=C(Cc1ccc(Cl)cc1)Nc1cc(S(=O)(=O)N2CCOCC2)ccc1N1CCCC1 | inconclusive: 8.91 µM [activator, partial curve, poor fit] | 
CN1CCN(C(=O)/C(C#N)=C/c2ccc(F)cc2)CC1 | inactive | 

Part of the list above, set out differently.
Structure (SMILES),Potency,"activity change, negative = inhibition"
CC(=O)N(c1ccccc1)c1ccc([N+](=O)[O-])cc1[N+](=O)[O-],inactive,
CC(C)C(=O)NC(=S)Nc1ccc(S(=O)(=O)N2CCCC2)cc1,"inconclusive: 8.91 µM [inhibitor, single point]",
CC(C)(C)OC(=O)NCCCCCNC(=O)c1[nH]cnc1C(=O)N[C@@H](CCCCNC(=O)OC(C)(C)C)C(=O)OC(C)(C)C,"inconclusive: 22.4 µM [inhibitor, single point]",
S=c1[nH]nc(Cc2ccccc2)n1-c1ccc(Cl)cc1,active: 2.24 µM,
CC(C)(C)NC(=O)/C=C/c1ccc(C(F)(F)F)cc1,"inconclusive: 20 µM [activator, single point]",

Further records

Structure (SMILES) | Potency | activity change, negative = inhibition
CCCOP(=O)(c1ccc(N(C)C)cc1)C(Nc1ccccc1)c1ccc(N(C)C)cc1 (stereo unspecified) | inconclusive: 1 µM [activator, full curve] | 
COc1cc(OC)c(NC(=O)CN(C)S(=O)(=O)c2ccc3[nH]c(=O)oc3c2)cc1Cl | inactive | 
CCNc1ncc2nc(-c3ccccc3)c(=O)n(Cc3cccc(OC)c3)c2n1 | inconclusive: 12.6 µM [inhibitor, partial curve] | 
O=C(CCNS(=O)(=O)c1ccc(Cl)cc1)N1CCC2(O)CCCCC2C1 (stereo unspecified) | inconclusive: 0.224 µM [activator, full curve, poor fit] | 
CC(=O)NC(CCS(C)(=O)=O)C(=O)Nc1cccc(Cl)c1Cl (stereo unspecified) | inconclusive: 5.62 µM [activator, single point] | 
O=C(CCCn1nnc(-c2cccnc2)n1)c1ccc(F)cc1 | inconclusive: 22.4 µM [activator, single point] | 
COc1cc(/C=C2/C(=O)NN(c3ccc(Cl)c(Cl)c3)C2=O)cc([N+](=O)[O-])c1O | inactive | 
COc1cc(OC)cc(C(=O)NC(=S)Nc2nnn(C)n2)c1 | inconclusive: 11.2 µM [inhibitor, partial curve, poor fit] | 
Cc1nn(-c2ccccc2)c(N2CCCC2)c1/C=N/NC(=O)c1cc(-c2cccnc2)nc2ccccc12 | inactive | 
CCC1NC(=S)N(C2CCCCC2)C1=O (stereo unspecified) | active: 11.2 µM | 
Cc1ccc(C(=O)CSc2ncnc3ccccc23)o1 | inconclusive: 35.5 µM [inhibitor, single point] | 
FC(F)(F)c1cccc(NC(=S)Nc2cccc(Cl)c2)c1 | inconclusive: 35.5 µM [inhibitor, single point] | 
Cc1ccccc1C(=O)N1CCN(c2ncnc3c2cnn3-c2ccccc2)CC1 | inconclusive: 10 µM [activator, partial curve] | 
O=C(COCC(=O)Nc1cccc(C(F)(F)F)c1)Nc1cccc(C(F)(F)F)c1 | active: 22.4 µM | 
CC(=O)N1c2ccc(S(=O)(=O)N3CCCC3)cc2CC1C(=O)NCc1ccc(OC(C)C)cc1 (stereo unspecified) | inconclusive: 11.2 µM [activator, partial curve] | 
Cc1cc2ccccc2n1CCNC(=O)C1CCCC1 | inactive | 
O=C(CNC(=O)c1ccc(S(=O)(=O)N2CCCCC2)cc1)N/N=C/c1ccco1 | inactive | 
C=CCc1cc(C)cc(C)c1OCCn1cncn1 | inconclusive: 6.31 µM [inhibitor, single point] | 
CCNS(=O)(=O)c1ccc(CCC(=O)Nc2cc(Cl)ccc2Oc2ccccc2)cc1 | inactive | 
O=C1CSC(c2nn(-c3ccccc3)cc2-c2cc3ccccc3oc2=O)N1Cc1ccco1 (stereo unspecified) | inactive | 
CCN(CC(=O)N1CCOCC1)S(=O)(=O)c1ccc(F)cc1 | inconclusive: 35.5 µM [inhibitor, single point] | 
O=C(Nc1nc2c(F)cc(F)cc2s1)C1COc2ccccc2O1 (stereo unspecified) | inconclusive: 12.6 µM [activator, partial curve, poor fit] | 
O=C(NNS(=O)(=O)c1ccccc1[N+](=O)[O-])c1cccnc1 | inactive | 
